We go through 15 targets from the supplement of paper PMC11006884.

Sequences of proteins named here, by UniProt entry; tags and fusion partners are left off. A change or cut given only in a name is not applied to a line headed by its entry.
UniProt P17987, whole entry, looked up: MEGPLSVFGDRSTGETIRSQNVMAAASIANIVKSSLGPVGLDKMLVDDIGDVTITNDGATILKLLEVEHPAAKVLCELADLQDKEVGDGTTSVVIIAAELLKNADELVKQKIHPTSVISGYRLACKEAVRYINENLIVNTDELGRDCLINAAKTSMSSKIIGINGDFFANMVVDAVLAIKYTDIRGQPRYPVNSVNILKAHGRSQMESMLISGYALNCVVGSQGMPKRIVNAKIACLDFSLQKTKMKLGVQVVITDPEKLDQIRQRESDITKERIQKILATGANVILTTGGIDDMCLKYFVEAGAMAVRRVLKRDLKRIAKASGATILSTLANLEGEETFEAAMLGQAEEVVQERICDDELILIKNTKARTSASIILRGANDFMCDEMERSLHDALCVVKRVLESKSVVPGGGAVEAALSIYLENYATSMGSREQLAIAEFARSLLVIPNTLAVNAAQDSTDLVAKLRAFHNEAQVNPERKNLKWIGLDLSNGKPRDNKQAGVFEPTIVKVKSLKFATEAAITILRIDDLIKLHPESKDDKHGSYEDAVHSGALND
UniProt P28290: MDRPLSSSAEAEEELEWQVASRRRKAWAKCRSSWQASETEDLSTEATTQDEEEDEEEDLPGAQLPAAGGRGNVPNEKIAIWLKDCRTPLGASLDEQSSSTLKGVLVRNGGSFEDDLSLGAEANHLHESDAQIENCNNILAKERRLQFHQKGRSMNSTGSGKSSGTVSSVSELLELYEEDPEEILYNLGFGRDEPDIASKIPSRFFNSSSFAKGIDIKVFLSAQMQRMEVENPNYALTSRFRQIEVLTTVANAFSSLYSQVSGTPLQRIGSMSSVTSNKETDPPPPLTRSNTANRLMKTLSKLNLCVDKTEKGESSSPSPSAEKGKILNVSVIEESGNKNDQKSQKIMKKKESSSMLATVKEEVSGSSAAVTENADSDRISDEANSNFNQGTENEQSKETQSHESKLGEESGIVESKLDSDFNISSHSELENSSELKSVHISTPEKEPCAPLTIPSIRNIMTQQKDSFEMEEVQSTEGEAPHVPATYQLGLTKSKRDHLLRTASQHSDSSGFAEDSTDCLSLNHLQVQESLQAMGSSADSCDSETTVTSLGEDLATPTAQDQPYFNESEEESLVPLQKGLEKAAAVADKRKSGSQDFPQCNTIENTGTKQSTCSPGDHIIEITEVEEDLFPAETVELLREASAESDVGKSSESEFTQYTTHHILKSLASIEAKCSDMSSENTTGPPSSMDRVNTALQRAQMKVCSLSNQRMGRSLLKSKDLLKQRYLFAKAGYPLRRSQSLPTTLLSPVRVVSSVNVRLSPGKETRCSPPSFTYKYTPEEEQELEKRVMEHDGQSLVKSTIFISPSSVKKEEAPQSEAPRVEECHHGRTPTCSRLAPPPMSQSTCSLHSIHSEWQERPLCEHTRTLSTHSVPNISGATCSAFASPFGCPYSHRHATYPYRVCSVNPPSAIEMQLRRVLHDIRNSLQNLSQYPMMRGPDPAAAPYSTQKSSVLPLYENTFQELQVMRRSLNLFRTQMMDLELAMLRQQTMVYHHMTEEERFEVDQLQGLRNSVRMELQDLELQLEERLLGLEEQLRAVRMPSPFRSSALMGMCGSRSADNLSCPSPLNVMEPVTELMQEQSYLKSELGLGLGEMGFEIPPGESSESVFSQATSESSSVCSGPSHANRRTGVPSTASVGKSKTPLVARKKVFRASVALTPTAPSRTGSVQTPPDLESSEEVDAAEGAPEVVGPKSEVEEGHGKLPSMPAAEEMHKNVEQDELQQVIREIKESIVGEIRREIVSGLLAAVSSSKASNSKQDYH
UniProt P22059, whole entry: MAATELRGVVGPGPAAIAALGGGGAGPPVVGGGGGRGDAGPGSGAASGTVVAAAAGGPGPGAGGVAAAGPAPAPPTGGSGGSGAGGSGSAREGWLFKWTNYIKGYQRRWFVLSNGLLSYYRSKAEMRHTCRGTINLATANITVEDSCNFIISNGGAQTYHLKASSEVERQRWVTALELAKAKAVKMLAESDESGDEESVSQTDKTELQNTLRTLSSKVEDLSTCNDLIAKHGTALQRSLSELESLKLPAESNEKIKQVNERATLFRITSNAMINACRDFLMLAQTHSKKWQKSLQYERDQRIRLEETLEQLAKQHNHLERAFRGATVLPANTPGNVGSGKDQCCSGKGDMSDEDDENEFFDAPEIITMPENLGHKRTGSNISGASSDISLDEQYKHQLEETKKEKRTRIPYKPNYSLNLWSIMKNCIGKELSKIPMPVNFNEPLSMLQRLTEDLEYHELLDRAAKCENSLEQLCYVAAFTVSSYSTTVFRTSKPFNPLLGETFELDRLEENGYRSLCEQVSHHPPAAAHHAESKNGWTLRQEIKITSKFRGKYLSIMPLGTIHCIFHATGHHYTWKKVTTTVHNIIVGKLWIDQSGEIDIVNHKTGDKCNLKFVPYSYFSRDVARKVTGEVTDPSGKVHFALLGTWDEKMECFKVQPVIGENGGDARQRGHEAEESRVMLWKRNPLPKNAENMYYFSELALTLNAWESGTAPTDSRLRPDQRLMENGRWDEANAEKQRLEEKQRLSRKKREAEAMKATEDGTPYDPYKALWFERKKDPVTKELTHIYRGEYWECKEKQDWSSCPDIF
UniProt P22307: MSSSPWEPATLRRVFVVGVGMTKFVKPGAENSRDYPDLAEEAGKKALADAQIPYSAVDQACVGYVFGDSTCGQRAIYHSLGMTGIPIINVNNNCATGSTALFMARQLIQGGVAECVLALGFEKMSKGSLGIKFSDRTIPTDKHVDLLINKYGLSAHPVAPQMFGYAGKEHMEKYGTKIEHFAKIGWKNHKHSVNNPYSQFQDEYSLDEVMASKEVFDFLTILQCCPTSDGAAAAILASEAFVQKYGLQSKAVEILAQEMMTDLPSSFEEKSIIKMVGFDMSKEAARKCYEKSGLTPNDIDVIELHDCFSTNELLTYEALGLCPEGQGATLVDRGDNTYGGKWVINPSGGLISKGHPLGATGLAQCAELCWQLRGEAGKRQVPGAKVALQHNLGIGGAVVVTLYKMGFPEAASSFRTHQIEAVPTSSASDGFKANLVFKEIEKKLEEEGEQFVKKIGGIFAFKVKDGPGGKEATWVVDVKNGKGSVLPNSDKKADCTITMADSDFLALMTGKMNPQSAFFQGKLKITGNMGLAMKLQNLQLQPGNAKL
UniProt P22570: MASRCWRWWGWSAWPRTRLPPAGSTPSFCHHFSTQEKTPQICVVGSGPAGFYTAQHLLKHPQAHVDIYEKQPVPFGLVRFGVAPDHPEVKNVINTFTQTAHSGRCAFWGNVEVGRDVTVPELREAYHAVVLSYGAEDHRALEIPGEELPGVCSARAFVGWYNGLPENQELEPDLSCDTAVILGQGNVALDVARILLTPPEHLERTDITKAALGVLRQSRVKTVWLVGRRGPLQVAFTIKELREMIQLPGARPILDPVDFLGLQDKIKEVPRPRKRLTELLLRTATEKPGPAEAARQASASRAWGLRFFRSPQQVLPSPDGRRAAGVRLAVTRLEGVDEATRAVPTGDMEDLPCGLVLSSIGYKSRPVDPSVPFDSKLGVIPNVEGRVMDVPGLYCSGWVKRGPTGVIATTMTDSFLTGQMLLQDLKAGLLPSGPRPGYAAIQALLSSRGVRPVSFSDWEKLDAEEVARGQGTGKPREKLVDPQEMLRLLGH
UniProt P29692: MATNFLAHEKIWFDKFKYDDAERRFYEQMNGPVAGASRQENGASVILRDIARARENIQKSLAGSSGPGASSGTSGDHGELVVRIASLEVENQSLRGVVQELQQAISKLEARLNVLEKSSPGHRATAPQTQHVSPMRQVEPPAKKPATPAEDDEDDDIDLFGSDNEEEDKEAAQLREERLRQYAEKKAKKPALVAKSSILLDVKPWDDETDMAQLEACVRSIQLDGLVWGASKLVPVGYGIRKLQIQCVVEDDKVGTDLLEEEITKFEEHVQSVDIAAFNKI
UniProt P26374: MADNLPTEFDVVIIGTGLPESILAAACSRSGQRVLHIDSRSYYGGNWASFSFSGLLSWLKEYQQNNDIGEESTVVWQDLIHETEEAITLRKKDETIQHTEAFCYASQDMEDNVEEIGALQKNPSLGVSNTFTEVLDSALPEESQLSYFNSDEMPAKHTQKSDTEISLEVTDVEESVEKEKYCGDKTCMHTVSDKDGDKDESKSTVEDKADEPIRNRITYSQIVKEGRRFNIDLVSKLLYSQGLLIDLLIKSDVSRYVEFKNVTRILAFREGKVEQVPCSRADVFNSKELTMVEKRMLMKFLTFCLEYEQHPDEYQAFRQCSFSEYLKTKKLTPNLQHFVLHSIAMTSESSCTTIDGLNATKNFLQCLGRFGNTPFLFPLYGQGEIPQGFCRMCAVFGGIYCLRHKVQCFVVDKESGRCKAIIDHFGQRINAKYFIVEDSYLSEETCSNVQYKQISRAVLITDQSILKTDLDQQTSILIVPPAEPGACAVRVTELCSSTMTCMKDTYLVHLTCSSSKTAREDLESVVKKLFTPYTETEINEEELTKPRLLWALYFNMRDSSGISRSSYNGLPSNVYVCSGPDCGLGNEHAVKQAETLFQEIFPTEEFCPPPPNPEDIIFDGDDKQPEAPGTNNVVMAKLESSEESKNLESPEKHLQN
UniProt P22102: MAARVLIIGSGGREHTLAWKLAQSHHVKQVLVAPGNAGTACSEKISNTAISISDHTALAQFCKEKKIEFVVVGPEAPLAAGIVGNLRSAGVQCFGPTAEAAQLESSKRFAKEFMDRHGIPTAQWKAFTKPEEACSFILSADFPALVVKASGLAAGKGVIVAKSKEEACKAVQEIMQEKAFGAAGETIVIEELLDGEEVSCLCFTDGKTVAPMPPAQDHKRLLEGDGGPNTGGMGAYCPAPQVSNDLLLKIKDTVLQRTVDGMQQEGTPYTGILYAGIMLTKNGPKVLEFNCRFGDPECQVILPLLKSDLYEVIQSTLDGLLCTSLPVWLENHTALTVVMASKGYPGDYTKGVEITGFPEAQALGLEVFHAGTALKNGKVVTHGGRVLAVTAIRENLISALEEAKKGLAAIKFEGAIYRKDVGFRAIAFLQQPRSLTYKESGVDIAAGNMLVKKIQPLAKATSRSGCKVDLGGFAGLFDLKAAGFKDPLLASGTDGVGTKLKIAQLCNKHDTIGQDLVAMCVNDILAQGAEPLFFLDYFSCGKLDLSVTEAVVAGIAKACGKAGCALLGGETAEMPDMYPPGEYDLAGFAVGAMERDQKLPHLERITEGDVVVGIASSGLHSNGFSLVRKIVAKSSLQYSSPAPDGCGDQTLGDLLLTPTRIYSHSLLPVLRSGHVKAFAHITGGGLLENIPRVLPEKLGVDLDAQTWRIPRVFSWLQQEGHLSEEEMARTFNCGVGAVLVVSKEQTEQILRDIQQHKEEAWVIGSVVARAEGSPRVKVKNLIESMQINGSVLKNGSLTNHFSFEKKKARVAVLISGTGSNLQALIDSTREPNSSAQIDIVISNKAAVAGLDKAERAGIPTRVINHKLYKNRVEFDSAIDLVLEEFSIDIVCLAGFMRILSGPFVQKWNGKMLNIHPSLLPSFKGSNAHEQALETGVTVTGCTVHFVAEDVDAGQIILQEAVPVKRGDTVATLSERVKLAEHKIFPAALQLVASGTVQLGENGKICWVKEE
UniProt P21399: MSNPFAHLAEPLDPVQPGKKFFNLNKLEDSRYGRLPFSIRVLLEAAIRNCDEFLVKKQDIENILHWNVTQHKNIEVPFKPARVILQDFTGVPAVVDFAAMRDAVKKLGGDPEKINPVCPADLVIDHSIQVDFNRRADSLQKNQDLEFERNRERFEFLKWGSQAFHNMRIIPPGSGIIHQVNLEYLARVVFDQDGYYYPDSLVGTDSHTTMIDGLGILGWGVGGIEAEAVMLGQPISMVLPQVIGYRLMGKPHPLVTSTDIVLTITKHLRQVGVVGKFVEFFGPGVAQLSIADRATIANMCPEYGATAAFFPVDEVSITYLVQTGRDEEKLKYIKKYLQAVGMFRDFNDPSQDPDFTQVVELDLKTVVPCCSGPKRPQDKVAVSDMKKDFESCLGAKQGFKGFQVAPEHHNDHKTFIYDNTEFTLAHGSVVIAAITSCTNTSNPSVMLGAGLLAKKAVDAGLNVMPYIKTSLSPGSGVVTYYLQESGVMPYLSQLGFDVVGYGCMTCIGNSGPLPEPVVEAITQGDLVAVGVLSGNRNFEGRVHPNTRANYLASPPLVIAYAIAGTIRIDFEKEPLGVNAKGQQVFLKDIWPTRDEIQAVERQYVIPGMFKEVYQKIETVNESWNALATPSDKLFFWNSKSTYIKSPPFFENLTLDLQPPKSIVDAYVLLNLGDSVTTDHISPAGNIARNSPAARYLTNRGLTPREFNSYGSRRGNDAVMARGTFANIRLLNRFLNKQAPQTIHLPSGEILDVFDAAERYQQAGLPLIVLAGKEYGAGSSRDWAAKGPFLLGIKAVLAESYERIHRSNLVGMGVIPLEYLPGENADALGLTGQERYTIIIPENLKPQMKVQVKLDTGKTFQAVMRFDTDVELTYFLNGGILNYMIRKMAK

The entries are a selection whose mix differs from that of the whole data set. The data scatter; read single values as rough.

Compound in this experiment: COC(=O)/C=C/c1ccccc1 [methyl cinnamate]
Description: log2 ratio of iodoacetamide-alkyne labeling of the cysteine site, DMSO over compound (competition); higher = stronger covalent engagement of the cysteine by the compound, active = 1 or more. The following applies: 500 µM; treatment time 1 h; system: HEK293T cell lysate. In outline: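 HEK293T lysate (2 mg/mL) was treated with DMSO or electrophile (500 µM, 1 h, ambient temperature), then iodoacetamide alkyne (1 h), clicked to sCIP-TMT reagents, pooled, trypsin-digested overnight at 37 °C, streptavidin-enriched and acid-eluted. Peptides were run on Orbitrap Eclipse LC-MS/MS with FAIMS and quantified in FragPipe. The log2 competition ratio per cysteine is mean control-channel over mean compound-channel reporter intensity. Duplicate channels and three replicates were used, and cysteines quantified in only one replicate were excluded.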
As to TCP1 C397 (UniProt P17987), the “log2 ratio of iodoacetamide-alkyne labeling” value (shortened to “log2 ratio”) is inactive: -0.0197.

Regarding UniProt P28290_C901, the “log2 ratio” value was inactive: 0.285.

As to COMT C223 (UniProt P21964), the “log2 ratio” value was inactive: 0.232.

For the target LAP3 C376 (UniProt P28838), the “log2 ratio” value is inactive: -0.0684.

Regarding OSBP C224 (UniProt P22059), the “log2 ratio” value was inactive: 0.012.

In the case of SCP2 C495 (UniProt P22307), the “log2 ratio” value was inactive: -0.08.

Consider FDXR C353 (UniProt P22570), for which the “log2 ratio” value is inactive: 0.24.

Turning to EEF1D C217 (UniProt P29692), the “log2 ratio” value was inactive: 0.00628.

For ANXA7 C285 (UniProt P20073), the “log2 ratio” value is inactive: 0.311.

With FLNA C717 (UniProt P21333), the “log2 ratio” value is inactive: 0.0726.

On to CHML C582 (UniProt P26374), for which the “log2 ratio” value was inactive: 0.0276.

In the case of SDHB C68 (UniProt P21912), the “log2 ratio” value is inactive: 0.243.

For GART C237 (UniProt P22102), the “log2 ratio” value is inactive: 0.261.

Consider ACO1 C369 (UniProt P21399), for which the “log2 ratio” value is inactive: -0.0176.

As for GART C646 (UniProt P22102), the “log2 ratio” value was inactive: 0.0886.
